In the supplement of paper PMC4604168 (melanoma cell lines):
The other results are listed elsewhere or left out. Single values are uncertain, as repeats are few or missing.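 Imaging used 1,536-well plates; nuclei positive for cleaved PARP by antibody were divided by total DNA-stained nuclei to yield the apoptosis fraction. Doses for screening kept most cells viable, and cell lines differ markedly in resting and induced cleaved-PARP levels.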

How the values were obtained:
Assay in all cases: cleaved PARP positive nuclei fraction relative to DMSO control; melanoma cells; higher = more apoptosis
Settings in all cases: library dose: low library concentration; 72 h
[1] = system: 501Mel
[2] = system: A101D
[3] = system: A2058
[4] = system: A375
[5] = system: C32
[6] = system: CBRC008 (line from a melanoma biopsy)
[7] = system: CBRC013 (line from a melanoma biopsy)
[8] = system: CBRC014 (line from a melanoma biopsy)
[9] = system: CBRC016 (line from a melanoma biopsy)
[10] = system: CBRC017 (line from a melanoma biopsy)
[11] = system: COLO792
[12] = system: COLO800
[13] = system: COLO829
[14] = system: G361
[15] = system: IPC-298
[16] = system: IST-MEL1
[17] = system: LB2518-MEL
[18] = system: LOXIMVI
[19] = system: MEL-HO

Row | Compound | cleaved PARP positive nuclei fraction [1] [%] | cleaved PARP positive nuclei fraction [2] [%] | cleaved PARP positive nuclei fraction [3] [%] | cleaved PARP positive nuclei fraction [4] [%] | cleaved PARP positive nuclei fraction [5] [%] | cleaved PARP positive nuclei fraction [6] [%] | cleaved PARP positive nuclei fraction [7] [%] | cleaved PARP positive nuclei fraction [8] [%] | cleaved PARP positive nuclei fraction [9] [%] | cleaved PARP positive nuclei fraction [10] [%] | cleaved PARP positive nuclei fraction [11] [%] | cleaved PARP positive nuclei fraction [12] [%] | cleaved PARP positive nuclei fraction [13] [%] | cleaved PARP positive nuclei fraction [14] [%] | cleaved PARP positive nuclei fraction [15] [%] | cleaved PARP positive nuclei fraction [16] [%] | cleaved PARP positive nuclei fraction [17] [%] | cleaved PARP positive nuclei fraction [18] [%] | cleaved PARP positive nuclei fraction [19] [%]
1 | O=C(/C=C/c1cccnc1)NCCCCC1CCN(C(=O)c2ccccc2)CC1 + COc1cc(Nc2ncc(F)c(Nc3ccc4c(n3)NC(=O)C(C)(C)O4)n2)cc(OC)c1OC [Tamatinib] (first compound 0.01 µM, partner dose 0.4 µM) | 25.8 | 263 | 166 | 84.8 | 109 | 1970 | 128 | 93.2 | 168 | 310 | 362 | 201 | 142 | 2190 | 134 | 289 | 94.4 | 63.9 | 178
2 | Cc1cn(-c2cc(NC(=O)c3ccc(C)c(Nc4nccc(-c5cccnc5)n4)c3)cc(C(F)(F)F)c2)cn1 [nilotinib] + CN(NC(=O)CC(=O)NN(C)C(=S)c1ccccc1)C(=S)c1ccccc1 [STA4783] (first compound 0.2 µM, partner dose 0.006 µM) | 451 | 98.9 | 105 | 688 | 41 | 1560 | 138 | 438 | 128 | 317 | 200 | 175 | 95.1 | 126 | 77.4 | 117 | 92.6 | 90.1 | 71.2
3 | Cc1cn(-c2cc(NC(=O)c3ccc(C)c(Nc4nccc(-c5cccnc5)n4)c3)cc(C(F)(F)F)c2)cn1 [nilotinib] + CC1(C)NC(=O)N(c2ccc([N+](=O)[O-])c(C(F)(F)F)c2)C1=O [nilutamide] (first compound 0.2 µM, partner dose 1 µM) | 178 | 44.8 | 102 | 74.6 | 66.4 | 143 | 121 | 93.2 | 23.8 | 106 | 63.6 | 94.3 | 59.1 | 78.6 | 42.7 | 192 | 91.6 | 81.8 | 67.6
4 | O=C(Nc1cc(C(F)(F)F)cc(C(F)(F)F)c1)c1cc(Cl)ccc1O + Cc1ccc(NC(=O)c2cccc(N(C)C)c2)cc1NC(=O)c1ccc(O)cc1 [ZM336372] (first compound 0.016 µM, partner dose 2 µM) | 107 | 88.6 | 103 | 76.4 | 107 | 55.7 | 106 | 113 | 94.3 | 101 | 80.6 | 49.8 | 129 | 103 | 76.1 | 37.2 | 139 | 117 | 73.9
5 | COc1cc([C@@H]2c3cc4c(cc3[C@@H](O[C@@H]3O[C@@H]5CO[C@@H](C)O[C@H]5[C@H](O)[C@H]3O)[C@H]3COC(=O)[C@H]23)OCO4)cc(OC)c1O [etoposide] + CC1(C)NC(=O)N(c2ccc([N+](=O)[O-])c(C(F)(F)F)c2)C1=O [nilutamide] (first compound 0.02 µM, partner dose 1 µM) | 93.5 | 83.4 | 151 | 48.3 | 128 | 149 | 61.5 | 65.4 | 52.2 | 105 | 294 | 128 | 85.6 | 51.2 | 32.1 | 90.8 | 98.8 | 91.5 | 34.2
6 | Cc1ccc(Nc2nccc(N(C)c3ccc4c(C)n(C)nc4c3)n2)cc1S(N)(=O)=O [Pazopanib] + Cc1cc(N2CCOCC2)cc2[nH]c(-c3c(NC[C@@H](O)c4cccc(Cl)c4)cc[nH]c3=O)nc12 [BMS536924] (first compound 0.4 µM, partner dose 0.2 µM) | 286 | 20.5 | 96.7 | 183 | 103 | 143 | 75.9 | 101 | 66 | 126 | 189 | 102 | 95.3 | 73.4 | 219 | 98.9 | 515 | 77.1 | 109
7 | Cc1ccc(Nc2nccc(N(C)c3ccc4c(C)n(C)nc4c3)n2)cc1S(N)(=O)=O [Pazopanib] + O=C(Nc1cccc(Cl)c1)Nc1ncc(CCNc2ncnc3ccsc23)s1 [SNS314] (first compound 0.4 µM, partner dose 0.0008 µM) | 95 | 80.1 | 76.2 | 103 | 175 | 62.3 | 87.5 | 105 | 96.5 | 102 | 42.8 | 70.5 | 42.3 | 115 | 111 | 215 | 162 | 104 | 77
8 | O=C(Nc1cc(C(F)(F)F)cc(C(F)(F)F)c1)c1cc(Cl)ccc1O + COc1cc2c(Oc3ccc4[nH]c(C)cc4c3F)ncnc2cc1OCCCN1CCCC1 [cediranib] (first compound 0.016 µM, partner dose 0.4 µM) | 90.9 | 89 | 302 | 129 | 158 | 61.4 | 98 | 82 | 97.2 | 113 | 224 | 93.1 | 87.2 | 32.8 | 194 | 52.3 | 220 | 135 | 74.4
9 | COc1cc([C@@H]2c3cc4c(cc3[C@@H](O[C@@H]3O[C@@H]5CO[C@@H](C)O[C@H]5[C@H](O)[C@H]3O)[C@H]3COC(=O)[C@H]23)OCO4)cc(OC)c1O [etoposide] + CO[C@@H]1[C@H](N(C)C(=O)c2ccccc2)C[C@H]2O[C@]1(C)n1c3ccccc3c3c4c(c5c6ccccc6n2c5c31)C(=O)NC4 [Midostaurin] (first compound 0.02 µM, partner dose 0.08 µM) | 95.8 | 60.5 | 83.7 | 117 | 115 | 132 | 144 | 99.4 | 51.4 | 90.6 | 196 | 74.4 | 85.6 | 168 | 49.4 | 69.2 | 98.2 | 163 | 80.2
10 | N#CC[C@H](C1CCCC1)n1cc(-c2ncnc3[nH]ccc23)cn1 [ruxolitinib] + CC(C)(C)c1cnc(CSc2cnc(NC(=O)C3CCNCC3)s2)o1 [SNS-032] (first compound 1 µM, partner dose 0.01 µM) | 72.5 | 68.8 | 197 | 74.2 | 106 | 44.5 | 92.5 | 87.6 | 61.7 | 123 | 80 | 22.3 | 87.2 | 107 | 82 | 34.5 | 148 | 55.6 | 101
11 | CCCCCCCCCCCCCCCCCCOP(=O)([O-])OC1CC[N+](C)(C)CC1 [Perifosine] + Cc1cc(N2CCOCC2)cc2[nH]c(-c3c(NC[C@@H](O)c4cccc(Cl)c4)cc[nH]c3=O)nc12 [BMS536924] (first compound 0.4 µM, partner dose 0.2 µM) | 245 | 251 | 187 | 579 | 98.8 | 70.2 | 179 | 100 | 47.6 | 92.2 | 108 | 104 | 90 | 78.2 | 61.2 | 196 | 79.1 | 134 | 64.7
12 | CCCCCCCCCCCCCCCCCCOP(=O)([O-])OC1CC[N+](C)(C)CC1 [Perifosine] + CN(C)S(=O)(=O)c1ccc2c(c1)/C(=C/c1cc3c([nH]1)CCCC3)C(=O)N2 [SU6656] (first compound 0.4 µM, partner dose 0.4 µM) | 88.2 | 47.8 | 83.6 | 119 | 85.1 | 128 | 116 | 90.7 | 91.2 | 104 | 285 | 176 | 37.2 | 135 | 91.1 | 163 | 85 | 65.4 | 77.1
13 | O=c1[nH]nc(Sc2ncc([N+](=O)[O-])s2)n1-c1ccc2c(c1)OCCO2 + CC1(C)NC(=O)N(c2ccc([N+](=O)[O-])c(C(F)(F)F)c2)C1=O [nilutamide] (first compound 0.2 µM, partner dose 1 µM) | 66.4 | 103 | 92.7 | 52.3 | 114 | 56.5 | 137 | 94.4 | 68.5 | 119 | 68.1 | 59.1 | 52.3 | 87.4 | 87.8 | 44.7 | 82.4 | 44.3 | 61.7
14 | CC[C@]1(O)C[C@H]2CN(CCc3c([nH]c4ccccc34)[C@@](C(=O)OC)(c3cc4c(cc3OC)N(C=O)[C@H]3[C@@](O)(C(=O)OC)[C@H](OC(C)=O)[C@]5(CC)C=CCN6CC[C@]43[C@@H]65)C2)C1 [vincristine] + O=C(O)c1ccc(-c2c[nH]c3ncc(-c4ccccc4)cc23)cc1C1CCCC1 [GSK650394] (first compound 0.0001 µM, partner dose 0.16 µM) | 202 | 126 | 867 | 303 | 295 | 291 | 59 | 85.8 | 150 | 111 | 91 | 57.8 | 147 | 87.1 | 46.9 | 124 | 106 | 90.4 | 145
15 | O=C(Nc1cc(C(F)(F)F)cc(C(F)(F)F)c1)c1cc(Cl)ccc1O + COc1cc(Nc2ncc(F)c(Nc3ccc4c(n3)NC(=O)C(C)(C)O4)n2)cc(OC)c1OC [Tamatinib] (first compound 0.016 µM, partner dose 0.4 µM) | 104 | 99.7 | 155 | 183 | 129 | 432 | 179 | 90.1 | 37.7 | 86.2 | 122 | 186 | 36.3 | 122 | 57.2 | 151 | 55.9 | 69.7 | 80.8

Look-ups from above.
Under cleaved PARP positive nuclei fraction [8] [%], O=C(Nc1cc(C(F)(F)F)cc(C(F)(F)F)c1)c1cc(Cl)ccc1O + COc1cc(Nc2ncc(F)c(Nc3ccc4c(n3)NC(=O)C(C)(C)O4)n2)cc(OC)c1OC [Tamatinib] (first compound 0.016 µM, partner dose 0.4 µM) reads 90.1
Under cleaved PARP positive nuclei fraction [16] [%], N#CC[C@H](C1CCCC1)n1cc(-c2ncnc3[nH]ccc23)cn1 [ruxolitinib] + CC(C)(C)c1cnc(CSc2cnc(NC(=O)C3CCNCC3)s2)o1 [SNS-032] (first compound 1 µM, partner dose 0.01 µM) reads 34.5
